The record followed here is PMC11996679, “Molecular basis of human nuclear and mitochondrial tRNA 3′ processing” (Nature Structural & Molecular Biology, 2024).

pKd: −log10 of the molar value. Construct, isoform or probe ends are uncertain for at least one entry. For some assays here: Tags and fusion partners may be left off the protein sequences shown.

Broadly, the pKd is the negative decadic logarithm of the Kd, by convention in mol/L.

The target of data set [1] is T1, ELAC2(D550N) (Homo sapiens) (UniProt Q9BQ52).
T1 sequence (looked up): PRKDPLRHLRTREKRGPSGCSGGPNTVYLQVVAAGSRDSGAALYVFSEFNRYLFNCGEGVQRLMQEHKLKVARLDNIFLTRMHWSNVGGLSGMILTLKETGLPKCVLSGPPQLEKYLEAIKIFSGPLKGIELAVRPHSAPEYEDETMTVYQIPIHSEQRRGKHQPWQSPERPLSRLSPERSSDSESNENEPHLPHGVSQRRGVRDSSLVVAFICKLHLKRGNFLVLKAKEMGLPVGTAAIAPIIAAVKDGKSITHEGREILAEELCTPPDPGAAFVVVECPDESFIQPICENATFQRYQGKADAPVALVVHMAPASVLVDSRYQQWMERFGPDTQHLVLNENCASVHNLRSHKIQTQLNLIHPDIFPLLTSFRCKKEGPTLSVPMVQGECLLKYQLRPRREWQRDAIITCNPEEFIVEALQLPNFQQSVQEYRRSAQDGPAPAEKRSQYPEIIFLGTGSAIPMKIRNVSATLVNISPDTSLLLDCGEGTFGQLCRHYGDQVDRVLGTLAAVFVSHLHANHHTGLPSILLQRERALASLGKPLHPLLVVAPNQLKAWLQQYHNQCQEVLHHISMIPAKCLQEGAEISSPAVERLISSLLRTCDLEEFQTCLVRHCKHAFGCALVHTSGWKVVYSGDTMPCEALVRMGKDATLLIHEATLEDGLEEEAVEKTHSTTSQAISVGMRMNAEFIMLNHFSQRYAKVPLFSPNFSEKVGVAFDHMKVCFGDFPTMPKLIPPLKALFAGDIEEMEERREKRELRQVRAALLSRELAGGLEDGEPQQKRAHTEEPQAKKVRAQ
Put plainly: fluorescence anisotropy. The following applies: 3 mM MgCl2; FA: 20 mM Tris-HCl pH 8, 80 mM NaCl, 40 mM KCl, 3 mM MgCl2, 5% glycerol, 2 mM DTT; 20 nM RNA; 20 min at 20 C, read at room temperature; recombinant protein; residues 32-826; protein details: N-terminal 6xHis-TEV (cleaved); label: internal FAM-UTP (5% spike).

The subject of another data set is TRMT10C + SDR5C1. Put plainly: fluorescence anisotropy. Particulars: 3 mM MgCl2; FA: 20 mM Tris-HCl pH 8, 80 mM NaCl, 40 mM KCl, 3 mM MgCl2, 5% glycerol, 2 mM DTT; 20 nM RNA; 20 min at 20 C, read at room temperature; recombinant protein; label: internal FAM-UTP (5% spike). (In general: Fluorescence polarisation rises when a labelled molecule tumbles more slowly, as on binding a larger partner.)

With “UAGGAUGGGGUGUGAUAGGUGGCACGGAGAAUUUUGGAUUCUCAGGGAUGGGUUCGAUUCUCAUAGUCCUAGAAAUAAGGGGGUUUAAGCUCCUAU [0-tRNAGln-24 (FAM-labeled pre-mt-tRNAGln)]”, the pKd in data set [1] is 6.52; in the data set with TRMT10C + SDR5C1, 6.78.
